Results are given in words; binding and its absence hold for the method and conditions named. In cells and extracts the contact can be indirect. Some binding calls cover weakened binding; strength is not graded here.
Target: GFP-tagged HEATR5B stably expressed in HEK293 cells (human) (UniProt Q9P2D3)
Assay: co-IP

Amino acid sequences for entries named in this document (tags omitted).
UniProt Q9P2D3: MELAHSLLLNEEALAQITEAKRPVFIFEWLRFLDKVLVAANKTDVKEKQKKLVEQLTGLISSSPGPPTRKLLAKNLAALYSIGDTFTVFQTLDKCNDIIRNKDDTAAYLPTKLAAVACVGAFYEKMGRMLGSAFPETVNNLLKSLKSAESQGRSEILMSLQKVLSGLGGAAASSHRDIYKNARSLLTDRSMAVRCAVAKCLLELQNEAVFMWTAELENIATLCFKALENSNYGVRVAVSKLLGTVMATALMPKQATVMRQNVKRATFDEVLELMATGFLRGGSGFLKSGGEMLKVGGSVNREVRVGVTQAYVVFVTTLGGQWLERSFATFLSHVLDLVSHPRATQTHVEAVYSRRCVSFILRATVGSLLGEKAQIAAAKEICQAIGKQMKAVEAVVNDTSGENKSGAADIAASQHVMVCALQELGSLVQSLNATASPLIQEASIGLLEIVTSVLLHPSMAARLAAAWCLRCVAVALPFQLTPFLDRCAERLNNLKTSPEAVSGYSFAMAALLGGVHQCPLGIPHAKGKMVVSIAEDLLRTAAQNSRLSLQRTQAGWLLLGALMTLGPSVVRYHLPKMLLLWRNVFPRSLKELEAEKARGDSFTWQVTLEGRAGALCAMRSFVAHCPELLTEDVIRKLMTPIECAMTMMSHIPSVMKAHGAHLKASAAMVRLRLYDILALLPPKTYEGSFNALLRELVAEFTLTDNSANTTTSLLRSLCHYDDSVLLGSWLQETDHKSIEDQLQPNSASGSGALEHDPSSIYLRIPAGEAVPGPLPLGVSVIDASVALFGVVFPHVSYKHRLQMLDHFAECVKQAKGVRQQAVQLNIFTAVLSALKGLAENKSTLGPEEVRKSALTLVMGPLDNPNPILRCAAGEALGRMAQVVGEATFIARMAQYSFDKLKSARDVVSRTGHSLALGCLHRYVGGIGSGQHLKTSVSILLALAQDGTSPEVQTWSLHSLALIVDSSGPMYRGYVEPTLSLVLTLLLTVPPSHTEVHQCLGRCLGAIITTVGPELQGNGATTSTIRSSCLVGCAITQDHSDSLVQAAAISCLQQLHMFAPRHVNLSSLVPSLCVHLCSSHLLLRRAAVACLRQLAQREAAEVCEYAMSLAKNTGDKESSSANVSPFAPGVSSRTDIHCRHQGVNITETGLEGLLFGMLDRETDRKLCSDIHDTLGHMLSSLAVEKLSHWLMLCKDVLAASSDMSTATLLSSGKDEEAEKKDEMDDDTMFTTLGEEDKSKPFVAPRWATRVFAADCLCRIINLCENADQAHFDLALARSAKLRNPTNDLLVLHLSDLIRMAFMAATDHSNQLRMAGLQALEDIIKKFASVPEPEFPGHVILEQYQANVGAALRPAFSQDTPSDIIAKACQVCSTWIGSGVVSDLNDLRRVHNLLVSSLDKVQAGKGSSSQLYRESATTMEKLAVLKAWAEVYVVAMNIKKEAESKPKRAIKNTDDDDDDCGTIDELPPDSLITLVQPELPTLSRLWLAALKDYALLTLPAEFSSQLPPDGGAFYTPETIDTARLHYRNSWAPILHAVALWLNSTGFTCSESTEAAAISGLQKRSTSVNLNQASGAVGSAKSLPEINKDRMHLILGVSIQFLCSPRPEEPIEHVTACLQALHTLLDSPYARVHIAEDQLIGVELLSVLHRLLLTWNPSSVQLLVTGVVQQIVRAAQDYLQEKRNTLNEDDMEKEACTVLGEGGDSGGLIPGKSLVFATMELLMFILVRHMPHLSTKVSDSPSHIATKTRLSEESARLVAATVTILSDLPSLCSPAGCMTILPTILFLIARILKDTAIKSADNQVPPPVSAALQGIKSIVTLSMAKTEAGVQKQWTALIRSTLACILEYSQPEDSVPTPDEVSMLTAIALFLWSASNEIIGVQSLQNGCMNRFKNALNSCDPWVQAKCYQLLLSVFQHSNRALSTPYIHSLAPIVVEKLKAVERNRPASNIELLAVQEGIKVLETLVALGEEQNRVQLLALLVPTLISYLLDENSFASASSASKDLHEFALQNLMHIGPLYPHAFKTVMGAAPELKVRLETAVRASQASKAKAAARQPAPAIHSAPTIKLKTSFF
UniProt Q14203: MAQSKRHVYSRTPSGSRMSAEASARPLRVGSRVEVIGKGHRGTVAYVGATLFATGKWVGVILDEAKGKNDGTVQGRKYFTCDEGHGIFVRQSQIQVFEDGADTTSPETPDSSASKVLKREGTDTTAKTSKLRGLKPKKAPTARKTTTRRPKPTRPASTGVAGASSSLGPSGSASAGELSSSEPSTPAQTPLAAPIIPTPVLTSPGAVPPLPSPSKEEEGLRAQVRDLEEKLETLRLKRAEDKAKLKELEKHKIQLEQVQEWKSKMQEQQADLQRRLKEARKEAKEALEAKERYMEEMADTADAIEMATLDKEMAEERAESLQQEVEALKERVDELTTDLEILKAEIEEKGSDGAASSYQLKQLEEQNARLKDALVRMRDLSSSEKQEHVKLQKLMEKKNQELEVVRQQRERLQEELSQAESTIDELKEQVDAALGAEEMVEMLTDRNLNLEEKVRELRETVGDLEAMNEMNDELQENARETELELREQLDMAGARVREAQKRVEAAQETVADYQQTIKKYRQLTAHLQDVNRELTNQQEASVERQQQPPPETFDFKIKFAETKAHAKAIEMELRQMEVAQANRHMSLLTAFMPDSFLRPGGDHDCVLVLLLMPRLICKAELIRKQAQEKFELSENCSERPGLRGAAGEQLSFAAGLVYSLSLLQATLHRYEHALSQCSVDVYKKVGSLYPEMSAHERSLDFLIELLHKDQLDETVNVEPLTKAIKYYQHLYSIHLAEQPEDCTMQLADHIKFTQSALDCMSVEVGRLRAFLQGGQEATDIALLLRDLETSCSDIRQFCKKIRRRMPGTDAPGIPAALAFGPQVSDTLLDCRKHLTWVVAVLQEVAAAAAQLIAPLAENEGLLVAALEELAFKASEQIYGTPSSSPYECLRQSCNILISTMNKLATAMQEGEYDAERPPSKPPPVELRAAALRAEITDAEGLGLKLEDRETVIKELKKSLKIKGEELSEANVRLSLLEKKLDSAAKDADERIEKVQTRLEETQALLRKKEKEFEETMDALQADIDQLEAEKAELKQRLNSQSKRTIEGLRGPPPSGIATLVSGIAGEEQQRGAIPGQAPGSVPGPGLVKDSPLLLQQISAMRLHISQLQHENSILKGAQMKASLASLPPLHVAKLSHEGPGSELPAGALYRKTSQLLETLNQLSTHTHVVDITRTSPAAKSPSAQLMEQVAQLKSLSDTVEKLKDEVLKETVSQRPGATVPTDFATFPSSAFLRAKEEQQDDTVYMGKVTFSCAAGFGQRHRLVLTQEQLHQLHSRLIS

DCTN1, endogenous in HEK293 cells (from UniProt Q14203 1-1278)
binding: binds

DYNC1H1, endogenous in HEK293 cells (from UniProt Q14204 1-4646)
binding: binds

B1: Aftiphilin (AFTPH), endogenous in HEK293 cells (protein, UniProt Q6ULP2 1-936)
chain: MEPDIIRMYSSSPPPLDNGAEDDDDDEFGEFGGFSEVSPSGVGFVDFDTPDYTRPKEEFVPSNHFMPIHEFSENVDSLTSFKSIKNGNDKDITAELSAPVKGQSDVLLSTTSKEIISSEMLATSIDGMERPGNLNKVVEQRQNVGTLESFSPGDFRTNMNVVHQNKQLESCNGEKPPCLEILTNGFAVLETVNPQGTDDLDNVADSKGRKPLSTHSTEYNLDSVPSPAEEFADFATFSKKERIQLEEIECAVLNDREALTIRENNKINRVNELNSVKEVALGRSLDNKGDTDGEDQVCVSEISIVTNRGFSVEKQGLPTLQQDEFLQSGVQSKAWSLVDSADNSEAIRREQCKTEEKLDLLTSKCAHLCMDSVKTSDDEVGSPKEESRKFTNFQSPNIDPTEENDLDDSLSVKNGDSSNDFVTCNDINEDDFGDFGDFGSASGSTPPFVTGTQDSMSDATFEESSEHFPHFSEPGDDFGEFGDINAVSCQEETILTKSDLKQTSDNLSEECQLARKSSGTGTEPVAKLKNGQEGEIGHFDSVPNIQDDCNGFQDSDDFADFSSAGPSQVVDWNAFEDEQKDSCSWAAFGDQQATESHHRKEAWQSHRTDENIDTPGTPKTHSVPSATSKGAVASGHLQESATSVQTALLNRLERIFEACFPSILVPDAEEEVTSLKHLLETSTLPIKTREALPESGELLDVWTELQDIHDAHGLRYQWGGSHSNKKLLSSLGIDTRNILFTGNKKQPVIVPMYAAGLGMLEPTKEPLKPLSAAEKIASIGQTATMSPDMNTCTSDQFQESLPPVQFDWSSSGLTNPLDASGGSTLLNLDFFGPVDDSSSSSSTTIPGVDPELYELTTSKLEISTSSLKVTDAFARLMSTVEKTSTSTRKPKREEHLSEEAIKVIAGLPDLTFMHAKVLMFPATLTPSTSSQEKADG
binding: binds

B2: γ-synergin (SYNRG), endogenous in HEK293 cells (protein, UniProt Q9UMZ2 1-1314)
chain: MALRPGAGSGGGGAAGAGAGSAGGGGFMFPVAGGIRPPQAGLMPMQQQGFPMVSVMQPNMQGIMGMNYSSQMSQGPIAMQAGIPMGPMPAAGMPYLGQAPFLGMRPPGPQYTPDMQKQFAEEQQKRFEQQQKLLEEERKRRQFEEQKQKLRLLSSVKPKTGEKSRDDALEAIKGNLDGFSRDAKMHPTPASHPKKPGPSLEEKFLVSCDISTSGQEQIKLNTSEVGHKALGPGSSKKYPSLMASNGVAVDGCVSGTTTAEAENTSDQNLSIEESGVGVFPSQDPAQPRMPPWIYNESLVPDAYKKILETTMTPTGIDTAKLYPILMSSGLPRETLGQIWALANRTTPGKLTKEELYTVLAMIAVTQRGVPAMSPDALNQFPAAPIPTLSGFSMTLPTPVSQPTVIPSGPAGSMPLSLGQPVMGINLVGPVGGAAAQASSGFIPTYPANQVVKPEEDDFQDFQDASKSGSLDDSFSDFQELPASSKTSNSQHGNSAPSLLMPLPGTKALPSMDKYAVFKGIAADKSSENTVPPGDPGDKYSAFRELEQTAENKPLGESFAEFRSAGTDDGFTDFKTADSVSPLEPPTKDKTFPPSFPSGTIQQKQQTQVKNPLNLADLDMFSSVNCSSEKPLSFSAVFSTSKSVSTPQSTGSAATMTALAATKTSSLADDFGEFSLFGEYSGLAPVGEQDDFADFMAFSNSSISSEQKPDDKYDALKEEASPVPLTSNVGSTVKGGQNSTAASTKYDVFRQLSLEGSGLGVEDLKDNTPSGKSDDDFADFHSSKFSSINSDKSLGEKAVAFRHTKEDSASVKSLDLPSIGGSSVGKEDSEDALSVQFDMKLADVGGDLKHVMSDSSLDLPTVSGQHPPAADIEDLKYAAFGSYSSNFAVSTLTSYDWSDRDDATQGRKLSPFVLSAGSGSPSATSILQKKETSFGSSENITMTSLSKVTTFVSEDALPETTFPALASFKDTIPQTSEQKEYENRDYKDFTKQDLPTAERSQEATCPSPASSGASQETPNECSDDFGEFQSEKPKISKFDFLVATSQSKMKSSEEMIKSELATFDLSVQGSHKRSLSLGDKEISRSSPSPALEQPFRDRSNTLNEKPALPVIRDKYKDLTGEVEENERYAYEWQRCLGSALNVIKKANDTLNGISSSSVCTEVIQSAQGMEYLLGVVEVYRVTKRVELGIKATAVCSEKLQQLLKDIDKVWNNLIGFMSLATLTPDENSLDFSSCMLRPGIKNAQELACGVCLLNVDSRSRKEEKPAEEHPKKAFNSETDSFKLAYGGHQYHASCANFWINCVEPKPPGLVLPDLL
binding: binds
